Source: PubChem BioAssay AID1688 (National Center for Advancing Translational Sciences (NCATS), 2009)
In all, about 220,000 compounds went through this assay and about 2,400 (1.1%) were called active. The shares of active, inactive and inconclusive entries below differ from those in the screen. Calls follow the shape of the dose curve; as a rule, active = well fitted inhibition curve with a large enough effect; inconclusive = small, poorly fitted or top-dose-only effect, or effect the other way; inactive = no such curve, though single readings can be large or run the other way. A potency beside an inconclusive call is a rough fit, not a confirmed value.

Experiment: qHTS Multiplex Assay to Identify Dual Action Probes in a Cell Model of Huntington: Aggregate Formation (GFP); also: nearly all actives have a fitted effect of over 60% in size
Settings: PC12 HttQ103-GFP aggregates, Acumen cytometry, 40 h; activity change, negative = inhibition: at 46.1 µM (top of the series) unless noted
How it was run: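 Using laser scanning cytometry, GFP-positive aggregates were counted after lysis of PC12 cells induced with 100 nM tebufenozide to express HTT exon 1 Q103–GFP. Compounds were tested in titration.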
% is scaled to controls: 0 for no effect and ±100 for the full control effect; potency is read from the fitted curve at half-maximal effect.

SMILES	Potency	activity change, negative = inhibition
CN1C[C@@H]2C(c3ccc(C(F)(F)F)cc3)C3(c4ccccc4)CC2(C3)[C@H]1c1ccccc1 (some centres undefined)	inconclusive: 4.47 µM [activator, partial curve, poor fit]	–
CCn1c2ccccc2c2cc(Nc3cc(C)nc4ncnn34)ccc21	inconclusive: 14.1 µM [activator, partial curve]	–
O=c1nc(/C=C/c2ccc(O)c(O)c2)oc2ccccc12	–	inactive: -6.67% [at 9.22 µM]
COc1ccc(NC(=O)CC2C(=O)N(C)C(=S)N2Cc2cccs2)cc1 (centres undefined)	–	inactive: 7.32%
Cc1ccc(O)c(C(=O)CC(=O)c2cccc(F)c2)c1	active: 17.8 µM	–
CS(=O)(=O)N(CC(=O)N1CCN(c2ccccc2)CC1)C1CCCCC1	inconclusive: 3.55 µM [inhibitor, single point]	–
O=S(=O)(N/N=C/c1cn(Cc2ccccc2)c2ccccc12)c1ccccc1	inconclusive: 35.5 µM [inhibitor, single point]	–
Cc1cc(-c2n[nH]c(=S)n2/N=C/c2ccc(Br)s2)n[nH]1	inconclusive: 3.55 µM [inhibitor, single point]	–
O=C(NCc1ccc2c(c1)OCO2)c1ccc2c(c1)OCO2	–	inactive: 13.5% [at 9.22 µM]
COc1ccc(NC(=O)C(Sc2ccccc2)c2ccccc2)c(OC)c1 (centres undefined)	inconclusive: 5.62 µM [inhibitor, single point]	–
CC(=O)NC(c1ccco1)c1ccc2cccnc2c1O (centres undefined)	active: 3.55 µM	–
CCCC(=O)NC(Nc1ccc(S(=O)(=O)Nc2ncccn2)cc1)(C(=O)OCC)C(F)(F)F (centres undefined)	inconclusive: 15.8 µM [activator, single point]	–
CC(=O)Cc1nsc(Nc2ccc(F)cc2)n1	–	inactive: -14.1%
O=Cc1cc2ccccc2nc1SCc1ccc(Cl)cc1	inconclusive: 22.4 µM [inhibitor, single point]	–
O=c1oc2ccccc2c(NCc2ccccc2)c1[N+](=O)[O-]	–	inactive: -10.1%
O=c1c2cccc3c2c(nn1CN1CCOCC1)-c1ccccc1-3	inconclusive: 35.5 µM [inhibitor, single point]	–
COc1cccc2c(=O)n(CC(=O)N3CCCc4ccccc43)ccc12	inconclusive: 3.98 µM [activator, partial curve]	–
CCc1nnc(NC(=O)CSc2nnc(-c3ccc(NS(=O)(=O)c4ccccc4)cc3)o2)s1	–	inactive: 21.2%
Cc1cc(C)cc(-n2c(C)nc3cc(C(=O)O)ccc32)c1	inconclusive: 2.51 µM [activator, single point]	–
O=C(/C=C/NNC(=O)c1ccccc1)c1ccc([N+](=O)[O-])cc1	inconclusive: 5.62 µM [inhibitor, single point]	–
Cc1cccc(C(=O)OCC(=O)Nc2ccc(N3CCCCC3)cc2)c1O	inconclusive: 0.794 µM [inhibitor, single point]	–
O=C(OCC#CCSc1nnc(-c2cccc3ccccc23)o1)c1cccs1	–	inactive: -1.54%
Cc1cccc(C)c1NC(=O)COc1ccc2c(C)c(Cc3ccccc3)c(=O)oc2c1C	inconclusive: 6.31 µM [activator, single point]	–

SMILES	Potency	activity change, negative = inhibition
Cc1ccc(C2CC2c2n[nH]c(=S)n2-c2cccc(Cl)c2)cc1 (centres undefined)	inconclusive: 11.2 µM [activator, partial curve]	–
O=[N+]([O-])c1ccc(OS(=O)(=O)Cc2ccccc2)cc1	inconclusive: 35.5 µM [inhibitor, single point]	–
Cn1c(=O)c2c(ncn2CC2OCCO2)n(C)c1=O	–	inactive: 6.73%
COc1ccc(NC(=O)CCNC(=O)Cn2ccc3ccccc3c2=O)c(OC)c1	inconclusive: 0.501 µM [activator, full curve, poor fit]	–
COc1ccc(-n2c(C)nc3c(cnn3-c3ccc(Cl)cc3)c2=O)cc1	active: 12.6 µM	–
CCOc1nc(C)ccc1-c1noc(-c2ccccc2OC)n1	inconclusive: 11.2 µM [activator, partial curve]	–
CC(=O)C1C(=O)C=C(c2ccco2)CC1c1ccccc1 (centres undefined)	–	inactive: 2.96%
Cc1ccc(NC(=O)COC(=O)c2cc(Cl)cc(Cl)c2)c(Br)c1	–	inactive: 11.7%
CC(C)CN(C)C(=O)CCc1nnc(Cc2ccc(-c3ccccc3)cc2)o1	inconclusive: 31.6 µM [inhibitor, partial curve]	–
Cc1cc(C(=O)COc2ccc(-c3nnco3)cc2)c(C)n1Cc1ccccc1	inconclusive: 12.6 µM [inhibitor, single point]	–
Cc1c(Cl)c([N+](=O)[O-])nn1Cc1ccc(C(=O)N/N=C\c2cc(Cl)ccc2O)o1	active: 1.58 µM	–
O=C(Nc1ccc(S(=O)(=O)NCC2CCCO2)cc1)c1cnccn1 (centres undefined)	–	inactive: -17.9% [at 9.22 µM]
Cc1ccc(NC2=C(Cl)C(=O)OC2OC(=O)c2ccco2)cc1 (centres undefined)	–	inactive: -9.45%
CCNC(=S)Nc1ccc(N(c2ccccc2)C(C)C)cc1	inconclusive: 35.5 µM [inhibitor, single point]	–
CC1CN(S(=O)(=O)c2cccc(-c3csc(-c4ccccc4)n3)c2)CC(C)O1 (centres undefined)	–	inactive: -28.6%
Cc1cc(C)nc(NS(=O)(=O)c2ccc(NC(=O)c3ccc4c(c3)OCO4)cc2)n1	–	inactive: 7.16% [at 9.22 µM]
Nc1nonc1-c1nc2ccccc2n1CC(=O)O	–	inactive: 11.6%
Cc1cc(NS(=O)(=O)c2ccc(NC(=O)CSc3nc4sc(C)c(C)c4c(=O)[nH]3)cc2)no1	inconclusive: 0.501 µM [activator, full curve, poor fit]	–
Cc1nn(-c2ccccc2)c(C)c1NC(=O)COc1ccc(F)cc1Cl	–	inactive: 10%
O=C(CN1CCOCC1)N1CCN(c2nnc(-c3ccccc3)c3ccccc23)CC1	–	inactive: 3.45%
O=C(NCC(c1ccco1)N1CCCCC1)c1ccc(OCc2ccccc2)cc1 (centres undefined)	inconclusive: 6.31 µM [inhibitor, full curve, poor fit]	–
CCOC(=O)N1CCC(N2CCCC(CO)(Cc3cccc(OC)c3)C2)CC1 (centres undefined)	active: 0.0006 µM	–
Cc1ccc(-c2cnn(-c3cccc([N+](=O)[O-])c3)c2N)cc1	inconclusive: 1.26 µM [inhibitor, single point]	–

Four successive compounds already listed, quoted:
SMILES	Potency	activity change, negative = inhibition
O=C(NCc1ccc2c(c1)OCO2)c1ccc2c(c1)OCO2	–	inactive: 13.5% [at 9.22 µM]
COc1ccc(NC(=O)C(Sc2ccccc2)c2ccccc2)c(OC)c1 (centres undefined)	inconclusive: 5.62 µM [inhibitor, single point]	–
CC(=O)NC(c1ccco1)c1ccc2cccnc2c1O (centres undefined)	active: 3.55 µM	–
CCCC(=O)NC(Nc1ccc(S(=O)(=O)Nc2ncccn2)cc1)(C(=O)OCC)C(F)(F)F (centres undefined)	inconclusive: 15.8 µM [activator, single point]	–

Next results follow:

SMILES	Potency	activity change, negative = inhibition
Cc1ccc2nc(SC(C)C(=O)NCc3ccco3)[nH]c2c1 (centres undefined)	inconclusive: 35.5 µM [activator, single point]	–
CSc1ccc(CNC(C)(C)CO)cc1	inconclusive: 1.41 µM [activator, partial curve]	–
CCN(CC)S(=O)(=O)c1ccc(NC(=O)c2cccnc2Cl)c(NC(=O)c2cccnc2Cl)c1	inconclusive: 35.5 µM [inhibitor, single point]	–
CCOC(=O)c1c(NC(=O)C2c3ccccc3Oc3ccccc32)sc(C(=O)N(CC)CC)c1C	inconclusive: 10 µM [inhibitor, partial curve]	–
Cc1ccc(NC(=O)CCN2CCN(C/C=C/c3ccccc3)CC2)cc1C	inconclusive: 1.26 µM [activator, partial curve]	–
Cc1cccc(-n2ncc3c(Nc4ccc(F)cc4)ncnc32)c1	inconclusive: 35.5 µM [inhibitor, partial curve]	–
O=S(=O)(Nc1cc(Sc2cccc3cccnc23)c(O)c2ccccc12)c1ccc(F)cc1	active: 22.4 µM	–
CN(C(=S)Oc1ccc(C(=O)Nc2ccccc2)cc1)c1ccccc1	inconclusive: 17.8 µM [inhibitor, partial curve]	–
CCOC(=O)C1=C(C)N=C(SC)N(C)C1c1ccccc1 (centres undefined)	inconclusive: 11.2 µM [activator, partial curve, poor fit]	–
CSCSC1=C(C#N)C(c2ccc(Cl)cc2)C(C(C)=O)=C(C)N1 (centres undefined)	inconclusive: 35.5 µM [inhibitor, single point]	–
CC(Oc1ccc(Cl)cc1Cl)c1ccnc2nc(N3CCOCC3)nn12 (centres undefined)	inconclusive: 11.2 µM [inhibitor, single point]	–
CCCCC1(Cc2cccc([N+](=O)[O-])c2)C(=O)N(c2ccccc2)N(c2ccccc2)C1=O	inconclusive: 11.2 µM [inhibitor, partial curve]	–
CCC(C)N(C(=O)CSc1ccc(NC(C)=O)cc1)C1CCS(=O)(=O)C1 (centres undefined)	inconclusive: 35.5 µM [inhibitor, single point]	–
Cc1ccc(NC2CC(=O)N(Cc3ccccc3)C2=O)cc1 (centres undefined)	–	inactive: -2.31%
O=[N+]([O-])c1ccc(NC(=S)N/C(=N/CS(=O)(=O)c2ccccc2)c2ccccc2)cc1	inconclusive: 31.6 µM [activator, partial curve]	–
Cc1cc(N2C(=O)C(O)=C(C(=O)c3cccs3)C2c2cccc(O)c2)no1 (centres undefined)	–	inactive: 14.8%
N#C/C(=C\c1ccc(-c2cccc([N+](=O)[O-])c2)o1)C(=O)Nc1nc(-c2cccs2)cs1	–	inactive: -11.7% [at 9.22 µM]
COC(=O)C1Cc2c([nH]c3ccccc23)C(C)N1 (centres undefined)	inconclusive: 1.26 µM [activator, single point]	–
C#CCOCCOCCOCCNc1nc(N2CCN(C(=O)[C@H]([C@@H](C)CC)n3cc([C@@H](N)CC(C)C)nn3)CC2)nc(N2CCN(C(=O)[C@H](Cc3cc4ccccc4[nH]3)n3cc([C@@H](N)C(C)CC)nn3)CC2)n1 (some centres undefined)	inconclusive: 1.41 µM [inhibitor, partial curve]	–
O=C1c2cccc3cc(Br)cc(c23)C(=O)N1Nc1ccc(Br)cc1	–	inactive: 22.8%
Clc1ccc(-c2nc(Cc3ccccc3)no2)cc1	inconclusive: 1.58 µM [activator, partial curve]	–
COc1ccc(CNC(=O)c2cc3c(C)nc4ccccc4c3o2)c(OC)c1	active: 3.98 µM	–
O=C(CCC(=O)Nc1ccc(Br)cc1)N/N=C/c1cc([N+](=O)[O-])ccc1O	inconclusive: 20 µM [inhibitor, single point]	–
